Experimental data as given in ChEMBL document CHEMBL4359831, “Chemoproteomics of an Indole-Based Quinone Epoxide Identifies Druggable Vulnerabilities in Vancomycin-Resistant Staphylococcus aureus” (J Med Chem, 2019).
Values after ≈ are worked out from the molar mass of the structure shown.

Test system: Enterococcus faecalis
Test: Antibacterial activity against Enterococcus faecalis B3119 after 16 to 18 hrs by CLSI M07-A10 protocol based dilution method
Type: functional

CN[C@H](CC(C)C)C(=O)N[C@H]1C(=O)N[C@@H](CC(N)=O)C(=O)N[C@H]2C(=O)N[C@H]3C(=O)N[C@H](C(=O)N[C@H](C(=O)O)c4cc(O)cc(O)c4-c4cc3ccc4O)[C@H](O)c3ccc(c(Cl)c3)Oc3cc2cc(c3O[C@@H]2O[C@H](CO)[C@@H](O)[C@H](O)[C@H]2O[C@H]2C[C@](C)(N)[C@H](O)[C@H](C)O2)Oc2ccc(cc2Cl)[C@H]1O [VANCOMYCIN]
MIC: 0.5 µg/mL (≈ 0.345 µM)
